Reference: PubChem BioAssay AID1508597 (Cure First, 2020)
This is an unselected part of about 2,100 deposited reagents. 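Calls flag viability under 80% in either arm, not effects specific to rucaparib; the reference for percent is not stated.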 The record does not give: the 100% reference.

Test: 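Knock-downs altering ovarian cancer cell survival with or without PARP inhibitor rucaparib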 (primary screen)
Cell system: human ovarian carcinoma lines grown from tumours: OCI-P5x (papillary serous) and OCI-C5x (clear cell)
Reagents: siRNA pool against human genes, 1.25 pmol siRNA per well
Duration: 72 h or 96 h, depending on the cell culture
Challenge: rucaparib 20 µM (about IC30) or vehicle, present until read-out
Detection: 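ATP luminescence measured at 72 or 96 h according to the culture, then normalised and expressed as percent viability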
Direction: viability, normalised: higher = more viable cells remaining
Active means: 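Active when normalised viability falls below 80 percent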
Calls: active = viability under 80%; inactive = viability 80% or more

Which result is listed for TDRD6 (tudor domain containing 6), rucaparib or vehicle Rucaparib, cell line OCI-C5x (clear cell), technical replicate 1?
viability, normalised (%): 65.2; outcome: active

With TDRD6 (tudor domain containing 6), rucaparib or vehicle Rucaparib, cell line OCI-C5x (clear cell), technical replicate 2, what does the deposit list?
viability, normalised (%): 54.2; outcome: active

For TDRD6 (tudor domain containing 6), rucaparib or vehicle Rucaparib, cell line OCI-C5x (clear cell), technical replicate 3, what does the deposit list?
viability, normalised (%): 42.5; outcome: active

What is on record for TDRD6 (tudor domain containing 6), rucaparib or vehicle Rucaparib, cell line OCI-P5x (serous), technical replicate 1?
viability, normalised (%): 68.4; outcome: active

For TDRD6 (tudor domain containing 6), rucaparib or vehicle Rucaparib, cell line OCI-P5x (serous), technical replicate 2, what was measured?
viability, normalised (%): 61.1; outcome: active

What is on record for TDRD6 (tudor domain containing 6), rucaparib or vehicle Rucaparib, cell line OCI-P5x (serous), technical replicate 3?
viability, normalised (%): 55.5; outcome: active

With TDRD6 (tudor domain containing 6), rucaparib or vehicle Vehicle, cell line OCI-C5x (clear cell), technical replicate 1, what does the deposit list?
viability, normalised (%): 57.9; outcome: active

How did the screen score TDRD6 (tudor domain containing 6), rucaparib or vehicle Vehicle, cell line OCI-C5x (clear cell), technical replicate 2?
viability, normalised (%): 63.3; outcome: active

Which result is listed for TDRD6 (tudor domain containing 6), rucaparib or vehicle Vehicle, cell line OCI-C5x (clear cell), technical replicate 3?
viability, normalised (%): 50.1; outcome: active

What did the screen give for TDRD6 (tudor domain containing 6), rucaparib or vehicle Vehicle, cell line OCI-P5x (serous), technical replicate 1?
viability, normalised (%): 89.9; outcome: inactive

For TDRD6 (tudor domain containing 6), rucaparib or vehicle Vehicle, cell line OCI-P5x (serous), technical replicate 2, what was measured?
viability, normalised (%): 96.1; outcome: inactive

Which result is listed for TDRD6 (tudor domain containing 6), rucaparib or vehicle Vehicle, cell line OCI-P5x (serous), technical replicate 3?
viability, normalised (%): 91.5; outcome: inactive
